Test [1] deals with FLAG-tagged Spt5 (Drosophila) (UniProt Q9V460). Nature of the test: co-IP; as the co-IP from transfected S2 DRSC cells (control or heat shocked), but the lysate was treated with DNase I or RNase A for 10 min at room temperature (0.4 mM MgCl2, stopped with 5 mM EDTA) before the anti-FLAG IP.
For test [2] the target is unchanged. In words: co-IP; S2 DRSC cells transiently co-transfected with a FLAG-tagged and an HA-tagged construct; lysis in 50 mM Tris pH 7.5, 150 mM NaCl, 1% NP40, 1 mM EGTA, 20 mM NaF; anti-FLAG IP on Protein G Dynabeads at 4 °C, anti-HA Western blot; cells at 25 °C, heat shocked (37 °C, 15 min) and recovering, or treated with radicicol, flavopiridol + heat shock, sodium salicylate, HSF or LacZ RNAi. (In general: Immunoblotting shows a protein as a band on a membrane.)

Sequences of proteins named here, by UniProt entry; tags and fusion partners are left off.
UniProt Q9V460: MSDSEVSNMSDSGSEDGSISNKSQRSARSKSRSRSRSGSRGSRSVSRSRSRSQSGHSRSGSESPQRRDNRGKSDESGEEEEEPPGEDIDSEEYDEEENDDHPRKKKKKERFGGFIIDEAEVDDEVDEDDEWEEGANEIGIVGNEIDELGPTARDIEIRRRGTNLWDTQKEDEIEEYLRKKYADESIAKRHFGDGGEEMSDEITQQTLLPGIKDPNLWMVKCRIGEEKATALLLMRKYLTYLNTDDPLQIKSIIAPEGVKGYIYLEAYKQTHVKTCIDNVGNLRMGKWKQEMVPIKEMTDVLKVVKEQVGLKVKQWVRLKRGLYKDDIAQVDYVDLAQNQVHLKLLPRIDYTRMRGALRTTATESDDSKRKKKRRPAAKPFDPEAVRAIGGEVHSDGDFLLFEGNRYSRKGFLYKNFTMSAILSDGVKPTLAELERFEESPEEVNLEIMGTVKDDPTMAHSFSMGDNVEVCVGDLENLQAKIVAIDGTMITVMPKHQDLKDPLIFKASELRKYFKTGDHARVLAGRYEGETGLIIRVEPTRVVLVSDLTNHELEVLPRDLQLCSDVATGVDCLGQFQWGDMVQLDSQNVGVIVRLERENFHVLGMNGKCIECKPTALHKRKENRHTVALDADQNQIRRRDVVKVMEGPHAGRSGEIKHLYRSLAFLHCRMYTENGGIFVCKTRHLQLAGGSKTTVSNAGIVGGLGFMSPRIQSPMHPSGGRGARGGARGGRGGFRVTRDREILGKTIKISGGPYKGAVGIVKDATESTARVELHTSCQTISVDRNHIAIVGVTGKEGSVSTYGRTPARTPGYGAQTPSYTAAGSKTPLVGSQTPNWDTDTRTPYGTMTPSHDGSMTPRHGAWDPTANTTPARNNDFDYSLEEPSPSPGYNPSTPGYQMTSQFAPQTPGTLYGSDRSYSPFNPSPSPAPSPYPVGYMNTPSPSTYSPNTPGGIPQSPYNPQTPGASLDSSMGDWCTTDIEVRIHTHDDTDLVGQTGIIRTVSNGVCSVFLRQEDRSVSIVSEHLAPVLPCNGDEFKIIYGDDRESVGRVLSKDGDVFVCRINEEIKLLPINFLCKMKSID

For test [3], the target named is FLAG-tagged Pho (Drosophila) (UniProt Q8ST83). The description is as above.

No constants are given. Whether binding was seen depends on the method and setting. Binding seen in cells or lysates may run through a third protein. Some entries that bind do so weakly or less than the wild type. For some assays here: Where a sequence is shown, tags or fusion partners need not be part of it.

Take “HA-tagged PhoV164D (from UniProt Q8ST83 1-520)”: the binding result in test [1] is “binds”; in test [2], “binds weakly”.
On the same counts, the results for “HA-tagged Pleiohomeotic (Pho) (from UniProt Q8ST83 1-520)” are “binds” and “binds”.
Regarding “HA-tagged Spt5 (from UniProt Q9V460 1-1078)”, in test [3], the binding result is reported as “binds”.

B1: HA-tagged N-Pho (a.a 1-351) (domain or fragment, UniProt Q8ST83 1-351)
chain: MAYERFGIILQSEQYDEDIGNTKVNQKMNEGNHYDLHRKNAFDRIIHSESKKGDNVINYNIHENDKIKAADNIFSSKLKMNPNMSYEMNINCFKNIGYGENQETSKVLTNSLSNNDINTEESGVVDKNSPFLTLGTTILNSNGKSRRWEQKLVHIKTMEGEFSVTMWASGISDDEYSGSDQIVGASDLLKGKEEFGIDGFTSQQNKEYQKMESKFTNAQTLEMPHPISSVQIMDHLIKERGNLSQENNISERILSKTTLSFEEPILLPDSSSIELVNETAAMTINNHRTLSNHTGNTGDLHALPSSVPFRIGLHEGQVNDCLSTISQSTHQDNTDSTGCGEMNLSEVTVSY
Take B1: in test [2], the binding result was “binds”.

B2: HA-tagged 1-200N-Pho (a.a 1-200) (domain or fragment, UniProt Q8ST83 1-200)
chain: MAYERFGIILQSEQYDEDIGNTKVNQKMNEGNHYDLHRKNAFDRIIHSESKKGDNVINYNIHENDKIKAADNIFSSKLKMNPNMSYEMNINCFKNIGYGENQETSKVLTNSLSNNDINTEESGVVDKNSPFLTLGTTILNSNGKSRRWEQKLVHIKTMEGEFSVTMWASGISDDEYSGSDQIVGASDLLKGKEEFGIDGF
As to B2, the binding entry in test [2] is on record as “binds”.

B3: HA-tagged Spt4 (protein, UniProt Q9TVQ5 1-116)
chain: MAFDAIPKDLRGLRACLVCSLVKSFDQFETDGCENCEEFLRMKNNKDNVYDHTSNNFDGIIALTTPTDSWVAKWQRLSRFTRGIYAISVSGTLPQSTLRDMKNRGIVYKSRDRSQR
B3: the binding result in test [2] is recorded as “binds”.
